# PubChem BioAssay AID1224830 | NIAID – 2016
# Aim: 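Regulators of TLR4 signalling towards TNF-alpha in macrophage-like cells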 (primary screen)
# System: human THP-1 monocytic leukaemia cells, TNF dual-luciferase reporter clone, PMA-differentiated to macrophage-like cells
# Knock-down reagent: siRNA pool against human genes, 50 nM
# Time to read-out: LPS for 4 h, given about 3 days after siRNA transfection
# Conditions: bacterial LPS (TLR4 ligand), 10 ng/ml
# Measurement: 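Ratio of firefly to renilla light, scaled to the plate median and expressed as a robust z-score per replicate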
# Scale: TNF reporter robust z-score: higher = stronger TNF reporter response to LPS
# Call rule: 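Each well counts as active if its z-score is over 2.8 or under -1.5; controls are left without a call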
# The whole screen tested about 18,000 reagents; this is a random part of them. Over the whole deposit, about 2,900 (16%) got an active call. 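Calls are made per well; low scores hint the gene aids the LPS response, high scores that it dampens it.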 Entries without a mark were called inactive. Repeated entries: four replicate wells of each siRNA pool.
gene symbol,TNF reporter robust z-score
CTXN3 (GeneID 613212),-0.5
CTXN3 (GeneID 613212),0.35
CTXN3 (GeneID 613212),-0.27
CTXN3 (GeneID 613212),0.32
EXOC4 (GeneID 60412),0.82
EXOC4 (GeneID 60412),1.55
EXOC4 (GeneID 60412),0.81
EXOC4 (GeneID 60412),0.6
NKPD1 (GeneID 284353),1.75
NKPD1 (GeneID 284353),2.82 (active)
NKPD1 (GeneID 284353),1.14
NKPD1 (GeneID 284353),2.58
LCN6 (GeneID 158062),0.95
LCN6 (GeneID 158062),2.37
LCN6 (GeneID 158062),2.47
LCN6 (GeneID 158062),2.33
LYPD8 (GeneID 646627),-1.1
LYPD8 (GeneID 646627),-0.51
LYPD8 (GeneID 646627),-0.41
LYPD8 (GeneID 646627),-0.7
RABGAP1L (GeneID 9910),0.75
RABGAP1L (GeneID 9910),-0.08
RABGAP1L (GeneID 9910),-0.25
RABGAP1L (GeneID 9910),-0.88
MXRA8 (GeneID 54587),0.38
MXRA8 (GeneID 54587),0.67
MXRA8 (GeneID 54587),-0.79
MXRA8 (GeneID 54587),0.9
AMMECR1 (GeneID 9949),-0.57
AMMECR1 (GeneID 9949),-0.89
AMMECR1 (GeneID 9949),-1.01
AMMECR1 (GeneID 9949),-0.74
RPS3 (GeneID 6188),1.81
RPS3 (GeneID 6188),0.86
RPS3 (GeneID 6188),0.84
RPS3 (GeneID 6188),3.6 (active)
RAB6A (GeneID 5870),0.82
RAB6A (GeneID 5870),0.22
RAB6A (GeneID 5870),-0.09
RAB6A (GeneID 5870),0.62
PRMT8 (GeneID 56341),-0.93
PRMT8 (GeneID 56341),-0.99
PRMT8 (GeneID 56341),-0.43
PRMT8 (GeneID 56341),-0.24
WNT8B (GeneID 7479),-0.22
WNT8B (GeneID 7479),-0.18
WNT8B (GeneID 7479),-1.07
WNT8B (GeneID 7479),-0.72

Called active (from the list above):
gene symbol,TNF reporter robust z-score
NKPD1 (GeneID 284353),2.82 (active)
RPS3 (GeneID 6188),3.6 (active)
